# These are yes or no findings as the source states them, for the method shown. In cells and extracts the contact can be indirect. Some results given as binding are weak or reduced against the parent protein; the word gives no strength.
# Protein sequences, listed by entry. Tags and fused reporters are not part of them.
# UniProt Q86U44: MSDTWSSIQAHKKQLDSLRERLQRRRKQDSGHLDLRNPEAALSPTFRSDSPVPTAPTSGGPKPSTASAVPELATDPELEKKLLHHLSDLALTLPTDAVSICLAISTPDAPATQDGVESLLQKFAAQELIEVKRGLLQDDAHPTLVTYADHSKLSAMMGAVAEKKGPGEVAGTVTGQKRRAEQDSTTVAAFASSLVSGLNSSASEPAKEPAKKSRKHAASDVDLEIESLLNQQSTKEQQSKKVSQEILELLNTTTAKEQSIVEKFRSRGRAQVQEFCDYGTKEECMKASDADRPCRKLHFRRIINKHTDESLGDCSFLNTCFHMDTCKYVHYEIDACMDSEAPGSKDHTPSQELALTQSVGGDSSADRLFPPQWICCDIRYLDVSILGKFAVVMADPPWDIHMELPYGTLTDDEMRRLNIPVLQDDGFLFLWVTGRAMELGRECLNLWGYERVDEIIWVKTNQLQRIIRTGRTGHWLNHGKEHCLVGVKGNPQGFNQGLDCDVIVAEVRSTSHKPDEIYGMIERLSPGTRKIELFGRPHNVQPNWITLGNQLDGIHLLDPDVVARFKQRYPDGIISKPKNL
# UniProt P45974: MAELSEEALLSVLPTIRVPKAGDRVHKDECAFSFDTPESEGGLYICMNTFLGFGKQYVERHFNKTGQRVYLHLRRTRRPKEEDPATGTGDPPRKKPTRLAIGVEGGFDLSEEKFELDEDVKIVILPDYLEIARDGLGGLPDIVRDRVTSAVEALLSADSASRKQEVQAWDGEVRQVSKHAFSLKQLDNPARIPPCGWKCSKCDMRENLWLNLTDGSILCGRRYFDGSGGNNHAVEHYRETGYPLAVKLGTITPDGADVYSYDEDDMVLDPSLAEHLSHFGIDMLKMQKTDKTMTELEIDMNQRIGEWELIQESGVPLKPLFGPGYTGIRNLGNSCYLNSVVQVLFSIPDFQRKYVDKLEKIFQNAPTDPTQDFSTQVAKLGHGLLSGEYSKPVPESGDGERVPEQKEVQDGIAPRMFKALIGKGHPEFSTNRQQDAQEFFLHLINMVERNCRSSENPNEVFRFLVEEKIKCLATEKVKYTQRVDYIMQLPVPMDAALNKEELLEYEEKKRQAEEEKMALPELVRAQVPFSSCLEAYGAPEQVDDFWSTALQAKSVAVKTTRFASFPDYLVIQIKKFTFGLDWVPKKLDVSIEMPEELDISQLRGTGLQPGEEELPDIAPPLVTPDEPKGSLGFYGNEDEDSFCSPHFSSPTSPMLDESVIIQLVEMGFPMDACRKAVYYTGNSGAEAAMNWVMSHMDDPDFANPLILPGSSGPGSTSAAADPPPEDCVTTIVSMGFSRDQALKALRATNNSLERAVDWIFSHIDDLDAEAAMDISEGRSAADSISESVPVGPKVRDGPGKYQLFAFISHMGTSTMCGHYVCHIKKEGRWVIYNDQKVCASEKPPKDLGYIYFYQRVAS
# Legend:
# [1] = target: methyltransferase like 3 (METTL3) (UniProt Q86U44); assay: co-IP; co-immunoprecipitation and western blotting in NPC cells (5-8F, CNE2); whole proteins
# [2] = target: methyltransferase like 3 (METTL3) (UniProt Q86U44); assay: co-IP; co-immunoprecipitation of USP5 with METTL3 in NPC cells with overexpressed BRD7
substance,measurement,setting,value
ubiquitin specific peptidase 5 (USP5) (from UniProt P45974 1-858) (enzyme),binding,[1],binds
same,binding,[2],binds

# Source: publication PMC11628346
